Data as given in patent CN111995685A.
These are yes or no findings as the source states them, for the method shown. Some results given as binding are weak or reduced against the parent protein; the word gives no strength.

Amino acid sequences for entries named in this document (tags omitted). Residues count along the entry.
UniProt Q15116, residues 25-167: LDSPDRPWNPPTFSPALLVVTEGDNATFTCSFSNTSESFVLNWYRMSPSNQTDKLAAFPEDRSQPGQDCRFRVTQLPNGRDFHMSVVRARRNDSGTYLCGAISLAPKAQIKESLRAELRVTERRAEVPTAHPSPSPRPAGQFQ

B1: T8# (antibody, V domains shown)
VH: EVQLVESGGGLVQPGGSLRLSCAASGFTFSRFDMSWIRQPPGKGLEWVGFIGGGGGRTHYPDAVKGRFTISRDDSKNSLYLQMNSLKTEDTAVYYCARHGTGTGAMDYWGQGTLVTVSS
VL: ETTLTQSPAFMSATPGDKVNISCRASKSVDNYGYSFMHWYQQKPGQPPKLLIYRNANLASGIPARFSGSGSGTEFTLTISSLQSEDFAVYYCQQSNEDPTFGGGTKLEIK
B2: T77# (antibody, V domains shown)
VH: EVQLLESGGGLVQPGGSLRLSCAASGFTFSRFDMSWVRQAPGKGLEWVGFIGGGGGRTHYPDAVKGRFTISRDDSKNSLYLQMNSLKTEDTAVYYCARHGTGTGAMDYWGQGTLVTVSS
VL: ETTLTQSPAFMSATPGDKVNISCRASKSVDNYGYSFMHWYQQKPGQAPRLLIYRSANLASGVPDRFSGSGSGTDFTLTISSLQAEDVAVYYCQQSNEDPTFGGGTKVEIK
B3: T79# (antibody, V domains shown)
VH: EVQLVESGGGLIQPGGSLRLSCAASGFTFSRFDMSWVRQAPGKGLEWIGFIGGGGGRTHYPDAVKGRFTISRDDSKNSLYLQMNSLKTEDTAVYYCARHGTGTGAMDYWGQGTLVTVSS
VL: AIRMTQSPDSLAVSLGERATINCRASKSVDNYGYSFMHWYQQKPGQAPRLLIYRSANLASGVPSRFSGSGSGTDFTLTINSLEAEDAATYYCQQSNEDPTFGGGTKVEIK
B4: T68# (antibody, V domains shown)
VH: EVQLVESGGGLVQPGGSLRLSCVASGFTFSRFDMSWVRQVPGKGLEWMGFIGGGGGRTHYPDAVKGRFTISRDDSKNSLYLQMNSLKTEDTAVYYCARHGIGTGAMDYWGQGTLVTVSS
VL: ETTLTQSPAFMSATPGDEVNISCRASKSVDNYGYSFMHWYQQKPGQAPRLLIYRSANLASGVPDRFSGSGSGTDFTLTISSLQAEDVAVYYCQQSNEDPTFGGGTKVEIK

molecular target: 抗原人源PD-1蛋白 (human) (UniProt Q15116); experiment: ELISA of humanised Fab phage clones on PD-1 antigen

binding, binds:
B1, B2, B3, B4
